{"source": "patent US20200405604A1", "about": "“COSMETIC COMPOSITION COMPRISING 4-(3-ETHOXY-4-HYDROXYPHENYL)-2-BUTANONE” (L'OREAL, priority 2011, published 2020)", "experiment": "Solubility test in test solvents", "format": "physicochemical", "settings": "heated to 50° C., cooled to 25° C. over 24 hours", "procedure": "The test solvent was poured into a beaker, an amount of the compound 4-(3-ethoxy-4-hydroxyphenyl)-2-butanone was added with magnetic stirring and the mixture was left to stand for between 1 hour and 24 hours. The mixture was then heated to 50° C. and then cooled to room temperature (25° C.) over 24 hours. The system was then observed to see if the amount of compound introduced recrystallized or remained dissolved.\nThe amount of compound that can be dissolved in the test solvent was determined in this manner. The maximum value corresponds to the amount at and above which the ester compound stops dissolving in the evaluated solvent.", "note": "The name of at least one read-out is uncertain.", "data": [{"compound": "CCOc1cc(CCC(C)=O)ccc1O", "note": "[4-(3-ethoxy-4-hydroxyphenyl)-2-butanone]", "values": [{"measurement": "Degree of solubilization", "setting": "solvent: 1,2-Propylene glycol", "result": ">20", "unit": "weight %"}, {"measurement": "Degree of solubilization", "setting": "solvent: 1,3-Propanediol", "result": ">20", "unit": "weight %"}, {"measurement": "Degree of solubilization", "setting": "solvent: Ethanol", "result": ">20", "unit": "weight %"}, {"measurement": "Degree of solubilization", "setting": "solvent: Glycerol", "result": 1, "unit": "weight %"}, {"measurement": "Degree of solubilization", "setting": "solvent: PEG-8", "result": ">20", "unit": "weight %"}, {"measurement": "Degree of solubilization", "setting": "solvent: Propylene carbonate", "result": ">20", "unit": "weight %"}, {"measurement": "Degree of solubilization", "setting": "solvent: Water", "result": "<1", "unit": "weight %"}]}]}
